Assay [1] concerns the target Cynomolgus MICA (Cynomolgus). Nature of the assay: BLI binding kinetics (legend of FIG. 8). Background: In BLI a coated tip is dipped into the sample, and binding shifts an interference pattern.
The target in assay [2] is Cynomolgus MICA (Cynomolgus). Nature of the assay: BLI (Gator Bio), antibody on anti-Fc biosensors, 200 nM antigen, monovalent format.

One molecule from patent EP4727976A2 can be followed below.

These are yes or no findings as the source states them, for the method shown. Binding calls can cover weak binding; strength is not graded here.

B1: ATX-P-1826 (fully humanized anti-MICA antibody) (antibody, human IgG1, kappa, V domains shown)
VH: QVQLVQSGAEVRKPGASVKVSCKASGYTFTGNYIHWVRQAPGQGLEWMGWINPNSGATNSAQKFQGRVTTTRDTSIDTAYMELSRLRSDDTAVYYCARDTFKPYYYYYLDVWGKGTTVTVSS
VL: DIQMTQSPSSVSASVGDRVTITCRTSQAINSWLAWYQQKPGKPPKLLISAASSLQSGVPSRFSGSGSGTDFTLTISNLQPEDFATYYCQQANIFPLTFGGGTKVEIKR
As to B1, the binding result in assay [1] and in assay [2] was “binds” in each case.
